Laboratory results as given in PubChem BioAssay AID1671190 (National Center for Advancing Translational Sciences (NCATS), 2021).
Among all 580,000 compounds or so, about 6,100 (1.1%) were called active. This list was built around the results that the source calls inconclusive (neither active nor inactive); the mix of calls is not that of the screen. Calls follow the shape of the dose curve; as a rule, active = well fitted inhibition curve with a large enough effect; inconclusive = small, poorly fitted or top-dose-only effect, or another doubt; inactive = no such curve, though single readings can be large or run the other way. Potencies of inconclusive entries are doubtful fits and often do not repeat.

Amino acid sequences for entries named in this document (tags omitted). A change or cut given only in a name is not applied to a line headed by its entry.
UniProt P18054: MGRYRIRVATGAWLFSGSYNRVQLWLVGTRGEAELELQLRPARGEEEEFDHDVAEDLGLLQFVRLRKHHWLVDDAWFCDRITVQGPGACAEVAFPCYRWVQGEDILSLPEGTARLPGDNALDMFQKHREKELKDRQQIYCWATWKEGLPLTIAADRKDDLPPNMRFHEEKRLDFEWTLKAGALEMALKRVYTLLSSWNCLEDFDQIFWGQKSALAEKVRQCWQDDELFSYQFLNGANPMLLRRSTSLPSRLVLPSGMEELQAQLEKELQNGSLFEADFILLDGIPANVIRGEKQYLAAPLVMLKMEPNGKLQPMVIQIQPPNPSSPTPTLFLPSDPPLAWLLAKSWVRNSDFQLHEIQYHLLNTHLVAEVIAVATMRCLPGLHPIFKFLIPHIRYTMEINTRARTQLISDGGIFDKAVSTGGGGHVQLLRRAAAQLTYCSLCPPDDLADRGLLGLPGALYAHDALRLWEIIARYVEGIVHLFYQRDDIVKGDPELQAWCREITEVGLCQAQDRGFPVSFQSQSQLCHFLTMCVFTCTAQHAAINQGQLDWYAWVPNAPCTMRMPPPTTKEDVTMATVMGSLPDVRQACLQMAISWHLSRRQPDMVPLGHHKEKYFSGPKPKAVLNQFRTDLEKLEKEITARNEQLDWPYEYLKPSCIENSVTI

The compounds below were run against Polyunsaturated fatty acid lipoxygenase ALOX12 (Homo sapiens) (UniProt P18054) (assay: Primary qHTS assay for inhibitors of human arachidonate 12S-lipoxygenase (ALOX12): Round 2). Settings: purified 12hLO, xylenol orange hydroperoxide absorbance; activity change, negative = inhibition: at 108 µM (top of the series) unless noted.
In short: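 Hydroperoxide product was detected by ferrous iron/xylenol orange as the 573 to 405 nm absorbance ratio. Arachidonic acid at 40 uM (final) was turned over for 30 min at room temperature by 150 nM human 12hLO, pH 7.0 Hepes buffer, after 15 min compound preincubation.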
% is scaled to controls: 0 for no effect and ±100 for the full control effect; potency is read from the fitted curve at half-maximal effect.

| Structure (SMILES) | activity change, negative = inhibition | Potency |
| --- | --- | --- |
| COc1ccc(C2/C=C\CN(C(=O)Nc3ccccc3)CC(=O)N2Cc2ccc(F)cc2)cc1 (stereo not drawn) | inactive: 0% |  |
| CN(C)Cc1c(O)ccc2c(=O)c(-c3ccccc3Cl)c(C(F)(F)F)oc12 |  | inconclusive: 50.1 µM [inhibitor, partial curve, poor fit] |
| C=CCn1c(SCc2nc3ccccc3c(=O)[nH]2)nc2ccccc2c1=O | inactive: 454% |  |
| Cn1ccnc1-c1nc2ccccc2[nH]c1=O | inactive: 7.15% [at 57.4 µM] |  |
| CCCc1nn2c(=O)cc(CSCC(=O)Nc3nnc(CC)s3)nc2s1 | inactive: -5.71% |  |
| CN1OC[C@@H]2CN(C(=O)CCc3ccccc3)[C@H](c3cccc(-c4ccccc4)c3)C[C@@H]21 |  | inconclusive: 100 µM [inhibitor, single point] |
| O=c1oc2ccccc2cc1-c1nc(-c2ccccc2)cs1 |  | inconclusive: 28.2 µM [inhibitor, single point] |
| COc1ccc(S(=O)(=O)N2CCCC(C(=O)N3CCCC3)C2)cc1OC (stereo not drawn) | inactive: -49.7% |  |
| Cc1cc(C(=O)OCC(=O)N2CCN(c3ccccc3)CC2)c2ccccc2n1 |  | inconclusive: 35.5 µM [inhibitor, single point] |
| COc1ccc(COc2cccc3ccc(C)nc23)cc1F | inactive: -12.2% |  |
| CC1CCN(c2ncnc3c2cnn3Cc2ccc(Cl)cc2)CC1 | inactive: 3.18% |  |
| CN1C=CC(=C[N+](=O)[O-])N(C)C1=O |  | inconclusive: 44.7 µM [inhibitor, partial curve, poor fit] |
| Cc1cc(N2C(=O)C(O)=C(C(=O)c3cc4ccccc4o3)C2c2ccc(OC(C)C)cc2)no1 (stereo not drawn) |  | inconclusive: 44.7 µM [inhibitor, partial curve, poor fit] |
| Cc1cccc(-n2c(O)c(C=Nc3ccc(O)cc3)c3ccccc3c2=O)n1 |  | inconclusive: 89.1 µM [inhibitor, partial curve, poor fit] |
| C[C@@H](NC(=O)COc1ccccc1)c1c(-c2ccc(Cl)cc2)noc1C(=O)O |  | inconclusive: 10 µM [inhibitor, full curve] |
| O=C(CSc1nc2ccccc2o1)c1c[nH]c2ccccc12 | inactive: -22.6% |  |
| Cc1ccc(N2C(=O)N(CC(=O)NCc3ccc(Cl)cc3)C(=O)C2C)cc1 (stereo not drawn) |  | inconclusive: 56.2 µM [inhibitor, partial curve, poor fit] |
| Cc1ccc(-c2nc3s/c(=C\c4ccco4)c(=O)n3n2)cc1 |  | inconclusive: 14.1 µM [inhibitor, full curve, poor fit] |
| CCc1nccn1CC(=O)N1CCC2(CC1)[C@H](O)C[C@@H]2O |  | inconclusive: 31.6 µM [inhibitor, partial curve, poor fit] |
| CCc1ccc(C(=O)Nc2ccc3nn(-c4ccc(C)c(Cl)c4)nc3c2)cc1 | inactive: -28.2% |  |
| COc1ccccc1CCNC(=O)CSCC(=O)Nc1ccccc1F | inactive: -0.817% |  |
| COc1ccc(-c2cn3c(n2)sc2cc(C(=O)Nc4cc(Cl)ccc4C)ccc23)cc1 |  | inconclusive: 50.1 µM [inhibitor, partial curve, poor fit] |

| Structure (SMILES) | activity change, negative = inhibition | Potency |
| --- | --- | --- |
| CCN1C(=O)/C(=C2/Sc3ccccc3N2CC)S/C1=N\c1ncn[nH]1 |  | inconclusive: 15.8 µM [inhibitor, full curve] |
| CCOC(=O)c1c(NC(=O)CCS(=O)(=O)c2ccccc2)sc2c1CCN(C(C)C)C2 | inactive: 463% |  |
| COc1ccc(NC(=O)COc2ccc3c(C)c(C)c(=O)oc3c2)cc1OC | inactive: 2.72% |  |
| CC1(NS(=O)(=O)c2ccc(Cl)s2)CCS(=O)(=O)C1 (stereo not drawn) |  | inconclusive: 56.2 µM [inhibitor, partial curve, poor fit] |
| Nc1ccccc1NC1CCCCC1 |  | inconclusive: 39.8 µM [inhibitor, partial curve, poor fit] |
| Cc1cc(C)cc(OCC(=O)N2Cc3ccccc3CC2C(=O)O)c1 (stereo not drawn) |  | inconclusive: 35.5 µM [inhibitor, partial curve, poor fit] |
| CCCC(c1nnnn1C1CCCCC1)N1CCN(C(=O)c2ccco2)CC1 (stereo not drawn) |  | inconclusive: 8.91 µM [inhibitor, full curve, poor fit] |
| CCCC(=O)Nc1nc(-c2ccc3c(c2)OCCO3)cs1 |  | inconclusive: 100 µM [inhibitor, single point] |
| O=C(c1ccc2c(c1)OCO2)N1CCC2(CC1)CC(c1ccccc1)=NO2 |  | inconclusive: 50.1 µM [inhibitor, partial curve] |
| CCn1cc2nc(SCc3ccccc3F)n(Cc3ccc(C)cc3)c(=O)c2n1 |  | inconclusive: 0.501 µM [inhibitor, full curve, poor fit] |
| S=C(NCCC1=CCCCC1)NCc1ccco1 |  | inconclusive: 44.7 µM [inhibitor, partial curve, poor fit] |
| COc1ccc(NC(=O)CC2C(=O)NCCN2C(=O)CN2CCN(c3ncccn3)CC2)cc1 (stereo not drawn) | inactive: 0.64% |  |
| C[C@H](NC(=O)[C@@H]1Cc2ccccc2CN1)C(=O)NC[C@H]1CC[C@H](C(=O)O)CC1 |  | inconclusive: 2.51 µM [inhibitor, full curve, poor fit] |
| CC(C)(C)c1ccc(-c2cc(C[C@H]3CNCC[C@H]3CC(=O)NCc3cccnc3)no2)cc1 |  | active: 28.2 µM |
| COc1ccccc1C(=O)COC(=O)C1CCN(S(=O)(=O)c2ccc(C)c(C)c2)CC1 |  | inconclusive: 100 µM [inhibitor, single point] |
| CS(=O)(=O)NCCc1ccc(C(=O)COc2ccc(Cl)c(Cl)c2)s1 |  | inconclusive: 56.2 µM [inhibitor, partial curve, poor fit] |
| Cc1ccc(N2CCN(c3nc(C(=O)O)cs3)CC2)cc1 |  | inconclusive: 14.1 µM [inhibitor, partial curve, poor fit] |
| Cc1ccc(S(=O)(=O)N2CCC(=O)N([C@H](COCc3ccccc3)C(C)C)CC2)cc1 |  | inconclusive: 100 µM [inhibitor, partial curve, poor fit] |
| O=C1C(Cl)=C(N2CCCCC2)C(=O)N1c1ccccc1Cl | inactive: -14.2% |  |
| Cc1ccc(NC(=O)C(=O)NCCN2CCN(C(=O)c3ccc(Br)cc3)CC2)cc1 |  | inconclusive: 25.1 µM [inhibitor, full curve, poor fit] |
| CCC(=O)NCC(c1ccc(Cl)cc1)N1CCN(C)CC1 (stereo not drawn) |  | inconclusive: 44.7 µM [inhibitor, partial curve] |

Full records as entered above:
Cc1ccc(NC(=O)C(=O)NCCN2CCN(C(=O)c3ccc(Br)cc3)CC2)cc1 is listed as Potency: inconclusive: 25.1 µM [inhibitor, full curve, poor fit]
CC1CCN(c2ncnc3c2cnn3Cc2ccc(Cl)cc2)CC1 is listed as activity change, negative = inhibition: inactive: 3.18%
CN(C)Cc1c(O)ccc2c(=O)c(-c3ccccc3Cl)c(C(F)(F)F)oc12 is listed as Potency: inconclusive: 50.1 µM [inhibitor, partial curve, poor fit]
